Cleaved PARP after 72 h of treatment

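Human melanoma cells were exposed to a pair of drugs for 72 h in 1,536-well plates and read by automated microscopy after fixing and staining. Values are the share of nuclei positive for cleaved PARP as a percentage of the same share in the DMSO control: 100 is the control level, higher means more apoptosis. Concentrations were fixed for each drug; these are the higher of two levels. These are primary screening values without error estimates. Basal and induced levels differ widely between cell lines.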 An unselected part of the screen is shown.

Compounds and concentrations:
A-769662: N#Cc1c(O)c2c(-c3ccc(-c4ccccc4O)cc3)csc2[nH]c1=O at 10000 nM
FH535: Cc1cc([N+](=O)[O-])ccc1NS(=O)(=O)c1cc(Cl)ccc1Cl at 5000 nM
perifosine: CCCCCCCCCCCCCCCCCCOP(=O)([O-])OC1CC[N+](C)(C)CC1 at 2000 nM
XAV939: Oc1nc(-c2ccc(C(F)(F)F)cc2)nc2c1CSCC2 at 10000 nM
cisplatin: N.N.[Cl][Pt][Cl] at 8000 nM
GSK650394: O=C(O)c1ccc(-c2c[nH]c3ncc(-c4ccccc4)cc23)cc1C1CCCC1 at 800 nM
NVP-TAE684: COc1cc(N2CCC(N3CCN(C)CC3)CC2)ccc1Nc1ncc(Cl)c(Nc2ccccc2S(=O)(=O)C(C)C)n1 at 400 nM
dorsomorphin: c1cc(-c2cnn3cc(-c4ccc(OCCN5CCCCC5)cc4)cnc23)ccn1 at 2000 nM
L-779450: Oc1cc(-c2nc(-c3ccccc3)[nH]c2-c2ccncc2)ccc1Cl at 1000 nM
enzastaurin: Cn1cc(C2=C(c3cn(C4CCN(Cc5ccccn5)CC4)c4ccccc34)C(=O)NC2=O)c2ccccc21 at 4000 nM
OSU-03012: NCC(=O)Nc1ccc(-n2nc(C(F)(F)F)cc2-c2ccc3c(ccc4ccccc43)c2)cc1 at 5000 nM
KU-0063794: COc1ccc(-c2ccc3c(N4CCOCC4)nc(N4C[C@@H](C)O[C@@H](C)C4)nc3n2)cc1CO at 100 nM

Pair | MeWo
XAV939 + KU-0063794 | 19.7
KU-0063794 + FH535 | 87.4
OSU-03012 + dorsomorphin | 71.0
L-779450 + OSU-03012 | 189
L-779450 + perifosine | 163
cisplatin + A-769662 | 99.9
XAV939 + FH535 | 70.1
FH535 + perifosine | 63.7
dorsomorphin + cisplatin | 118
NVP-TAE684 + cisplatin | 163
enzastaurin + GSK650394 | 231
KU-0063794 + A-769662 | 12.1
enzastaurin + FH535 | 150
OSU-03012 + cisplatin | 129
OSU-03012 + NVP-TAE684 | 203
A-769662 + perifosine | 173
dorsomorphin + A-769662 | 60.2
FH535 + L-779450 | 82.4
perifosine + KU-0063794 | 82.3
dorsomorphin + KU-0063794 | 168
cisplatin + KU-0063794 | 102
L-779450 + enzastaurin | 93.5
GSK650394 + cisplatin | 131
cisplatin + FH535 | 145
L-779450 + KU-0063794 | 44.0
L-779450 + NVP-TAE684 | 98.2
KU-0063794 + enzastaurin | 83.9
L-779450 + GSK650394 | 36.9
NVP-TAE684 + XAV939 | 45.8
cisplatin + perifosine | 45.4
XAV939 + A-769662 | 135
enzastaurin + perifosine | 117
NVP-TAE684 + KU-0063794 | 125
XAV939 + GSK650394 | 36.6
enzastaurin + NVP-TAE684 | 183
dorsomorphin + perifosine | 296

Some entries from above, unchanged:

- KU-0063794 + FH535 | MeWo: 87.4
- cisplatin + FH535 | MeWo: 145
- GSK650394 + cisplatin | MeWo: 131
- OSU-03012 + dorsomorphin | MeWo: 71.0
- cisplatin + perifosine | MeWo: 45.4

Source: doi:10.1371/journal.pone.0140310, primary screening data, rounded.